PubChem BioAssay AID1259308, NCATS | 2017
Shown is a random part of about 59,000 reagents. About 1,510 of them (2.6%) were called active. 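Calls use total luciferase alone and ignore viability, so some active siRNAs may act by altering cell number.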

- Purpose: 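Candidate targets for better recombinant protein yield in mammalian cells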 (primary screen)
- Cells: human HEK293 embryonic kidney cells stably expressing firefly luciferase (HEK-CMV-Luc2-Hygro)
- Reagent: single siRNA against human genes, 0.8 pmol siRNA per well
- Duration: 72 h
- Detection: 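Reporter luminescence and viable-cell signal on separate replicate plates, given as percent of non-targeting control and median/MAD z-scores, plus per-cell luciferase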
- Direction: total luciferase, z-score and total luciferase, % of control: higher = more reporter protein produced; luciferase per cell, z-score: higher = more reporter output per viable cell; viable cells, % of control: higher = more viable cells
- Call rule: 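An siRNA counts as active if its total luciferase robust z-score exceeds 3; genes with two or more such siRNAs out of three were retested with fresh siRNAs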
- Calls: active = raised luciferase; inactive = no rise

no.	target	PubChem SID	total luciferase, z-score	total luciferase, % of control	luciferase per cell, z-score	viable cells, % of control	outcome
1	TMPRSS3 (GeneID 64699)	SID160747859	1.12	104	0.407	105	inactive
2	TMPRSS3 (GeneID 64699)	SID160747860	0.601	93.8	0.408	94.2	inactive
3	TMPRSS3 (GeneID 64699)	SID160747861	-0.909	63.8	3.59	27.7	inactive
4	PROKR1 (GeneID 10887)	SID160729428	-0.141	79.1	-0.232	93.9	inactive
5	PROKR1 (GeneID 10887)	SID160729429	-0.025	81.4	-0.0957	93.3	inactive
6	PROKR1 (GeneID 10887)	SID160729430	-0.847	65	-0.419	81.2	inactive
7	PPIH (GeneID 10465)	SID160728490	0.213	86.1	0.21	91.1	inactive
8	PPIH (GeneID 10465)	SID160728491	1.37	109	2.35	65.7	inactive
9	PPIH (GeneID 10465)	SID160730439	2.41	130	1.29	103	inactive
10	DDX19A (GeneID 55308)	SID160743496	-1.12	59.6	-2.02	113	inactive
11	DDX19A (GeneID 55308)	SID160743497	1.43	110	1.37	86	inactive
12	DDX19A (GeneID 55308)	SID160743498	2.5	132	2.01	86.7	inactive
13	ZNF382 (GeneID 84911)	SID160752918	-0.822	65.5	-0.196	77.1	inactive
14	ZNF382 (GeneID 84911)	SID160752919	0.324	88.3	0.214	93.3	inactive
15	ZNF382 (GeneID 84911)	SID160752920	-0.771	66.6	-1.1	99.2	inactive
16	SFT2D1 (GeneID 113402)	SID160754832	-1.06	60.8	-1.28	95.2	inactive
17	SFT2D1 (GeneID 113402)	SID160754833	-0.43	73.3	-0.0278	82.5	inactive
18	SFT2D1 (GeneID 113402)	SID160754834	-0.0427	81	-0.288	97.7	inactive
19	RPL14P1 (GeneID 144581)	SID160734084	-2.51	32	-1.28	50.1	inactive
20	RPL14P1 (GeneID 144581)	SID160734085	-2.84	25.4	-2.1	49.3	inactive
21	RPL14P1 (GeneID 144581)	SID160770444	-3.6	10.2	-4.26	35.1	inactive
22	LOC729696 (retired record) (GeneID 729696)	SID160773060	-1.77	46.7	0.0246	51.9	inactive
23	LOC729696 (retired record) (GeneID 729696)	SID160773062	0.885	99.5	1.01	85.2	inactive
24	LOC729696 (retired record) (GeneID 729696)	SID160773063	-1.63	49.5	-1.02	72.3	inactive
25	MRPL54 (GeneID 116541)	SID160724745	-0.729	67.4	-1.22	104	inactive
26	MRPL54 (GeneID 116541)	SID160732359	-0.466	72.6	-0.643	96.1	inactive
27	MRPL54 (GeneID 116541)	SID160755458	-0.122	79.5	-0.046	89.9	inactive
28	ZSCAN31 (GeneID 64288)	SID160747640	5.51	192	3.42	87	active
29	ZSCAN31 (GeneID 64288)	SID160747641	1.15	105	0.746	96.1	inactive
30	ZSCAN31 (GeneID 64288)	SID160747642	-0.643	69.1	0.279	71.7	inactive
31	ZNF512 (GeneID 84450)	SID160752277	-0.985	62.3	-1.35	99.3	inactive
32	ZNF512 (GeneID 84450)	SID160752278	0.737	96.5	0.72	89.3	inactive
33	ZNF512 (GeneID 84450)	SID160752280	1.09	103	0.941	90.3	inactive
34	ARMC10 (GeneID 83787)	SID160751404	1.49	112	0.612	106	inactive
35	ARMC10 (GeneID 83787)	SID160751405	1.28	107	0.839	96.2	inactive
36	ARMC10 (GeneID 83787)	SID160751406	0.826	98.3	0.158	105	inactive

A stretch taken from the entries so far:
no.	target	PubChem SID	total luciferase, z-score	total luciferase, % of control	luciferase per cell, z-score	viable cells, % of control	outcome
1	TMPRSS3 (GeneID 64699)	SID160747859	1.12	104	0.407	105	inactive
2	TMPRSS3 (GeneID 64699)	SID160747860	0.601	93.8	0.408	94.2	inactive
3	TMPRSS3 (GeneID 64699)	SID160747861	-0.909	63.8	3.59	27.7	inactive
4	PROKR1 (GeneID 10887)	SID160729428	-0.141	79.1	-0.232	93.9	inactive
5	PROKR1 (GeneID 10887)	SID160729429	-0.025	81.4	-0.0957	93.3	inactive
6	PROKR1 (GeneID 10887)	SID160729430	-0.847	65	-0.419	81.2	inactive

The list goes on.
no.	target	PubChem SID	total luciferase, z-score	total luciferase, % of control	luciferase per cell, z-score	viable cells, % of control	outcome
37	OR2B11 (GeneID 127623)	SID160756654	0.0725	83.3	0.508	81.4	inactive
38	OR2B11 (GeneID 127623)	SID160756655	-0.832	65.3	-0.518	83.7	inactive
39	OR2B11 (GeneID 127623)	SID160756656	-0.43	73.3	-0.292	88.5	inactive
40	LHX3 (GeneID 8022)	SID160719559	-1.33	55.4	-1.26	86.3	inactive
41	LHX3 (GeneID 8022)	SID160719560	3.05	143	1.97	94.8	active
42	LHX3 (GeneID 8022)	SID160719561	-0.062	80.7	-0.0953	92.4	inactive
43	PSEN1 (GeneID 5663)	SID160714934	1.49	111	1.33	87.8	inactive
44	PSEN1 (GeneID 5663)	SID160715042	-1.44	53.3	-1.23	82.4	inactive
45	PSEN1 (GeneID 5663)	SID160731562	0.861	99	0.465	97.9	inactive
46	ANTXR1 (GeneID 84168)	SID160751824	-1.44	53.3	-2.13	104	inactive
47	ANTXR1 (GeneID 84168)	SID160751825	-0.557	70.8	-1.41	115	inactive
48	ANTXR1 (GeneID 84168)	SID160751826	-0.227	77.4	-1.14	117	inactive
49	CAMSAP3 (GeneID 57662)	SID160746522	-0.773	66.5	-0.339	81.3	inactive
50	CAMSAP3 (GeneID 57662)	SID160746523	0.87	99.2	1.64	72	inactive
51	CAMSAP3 (GeneID 57662)	SID160746524	0.288	87.6	-0.158	102	inactive
52	NCOA5 (GeneID 57727)	SID160746679	0.637	94.6	0.118	102	inactive
53	NCOA5 (GeneID 57727)	SID160746680	0.199	85.9	0.124	92.8	inactive
54	NCOA5 (GeneID 57727)	SID160746682	1.08	103	0.583	99.1	inactive
55	TRAPPC13 (GeneID 80006)	SID160734968	-1.02	61.5	-1.03	90.1	inactive
56	TRAPPC13 (GeneID 80006)	SID160749941	1.19	106	0.441	105	inactive
57	TRAPPC13 (GeneID 80006)	SID160749942	1.6	114	0.483	112	inactive
58	ABHD12B (GeneID 145447)	SID160758235	-0.726	67.4	-0.0495	76.3	inactive
59	ABHD12B (GeneID 145447)	SID160758236	1.31	108	2.18	67.9	inactive
60	ABHD12B (GeneID 145447)	SID160758237	-0.672	68.5	-0.515	87.7	inactive
61	LRRC59 (GeneID 55379)	SID160743661	0.519	92.2	0.774	84	inactive
62	LRRC59 (GeneID 55379)	SID160743663	0.805	97.9	1.14	81	inactive
63	LRRC59 (GeneID 55379)	SID160743664	0.37	89.2	0.651	84	inactive
64	HYLS1 (GeneID 219844)	SID160761361	0.802	97.8	1.53	73.1	inactive
65	HYLS1 (GeneID 219844)	SID160761362	-0.159	78.7	-0.0529	89.2	inactive
66	HYLS1 (GeneID 219844)	SID160761363	0.717	96.2	0.988	82.8	inactive
67	SPECC1 (GeneID 92521)	SID160754299	0.087	83.6	0.0143	93.1	inactive
68	SPECC1 (GeneID 92521)	SID160754301	-0.354	74.8	-0.182	87.7	inactive
69	SPECC1 (GeneID 92521)	SID160754302	0.0228	82.3	-0.0644	93.6	inactive
70	WDSUB1 (GeneID 151525)	SID160759119	1.04	103	2.01	67.5	inactive
71	WDSUB1 (GeneID 151525)	SID160759120	-0.391	74.1	-0.107	85.2	inactive
72	WDSUB1 (GeneID 151525)	SID160759121	-0.13	79.3	-0.542	102	inactive
73	LTBR (GeneID 4055)	SID160776772	-0.538	71.2	0.178	75.9	inactive
74	LTBR (GeneID 4055)	SID160776773	-0.345	75	-0.377	92.6	inactive
75	LTBR (GeneID 4055)	SID160776774	-0.375	74.4	0.26	77.7	inactive
